In the supplement of paper PMC12067093, “Discovery and optimisation of a covalent ligand for TRIM25 and its application to targeted protein ubiquitination” (Chemical Science, 2025):
The list shows a part of the results.

By UniProt entry, the sequences of proteins in these tests, tags left out. Where a name states a change or a piece, a line headed by the entry shows the natural chain unless it says otherwise.
UniProt Q9BQG0: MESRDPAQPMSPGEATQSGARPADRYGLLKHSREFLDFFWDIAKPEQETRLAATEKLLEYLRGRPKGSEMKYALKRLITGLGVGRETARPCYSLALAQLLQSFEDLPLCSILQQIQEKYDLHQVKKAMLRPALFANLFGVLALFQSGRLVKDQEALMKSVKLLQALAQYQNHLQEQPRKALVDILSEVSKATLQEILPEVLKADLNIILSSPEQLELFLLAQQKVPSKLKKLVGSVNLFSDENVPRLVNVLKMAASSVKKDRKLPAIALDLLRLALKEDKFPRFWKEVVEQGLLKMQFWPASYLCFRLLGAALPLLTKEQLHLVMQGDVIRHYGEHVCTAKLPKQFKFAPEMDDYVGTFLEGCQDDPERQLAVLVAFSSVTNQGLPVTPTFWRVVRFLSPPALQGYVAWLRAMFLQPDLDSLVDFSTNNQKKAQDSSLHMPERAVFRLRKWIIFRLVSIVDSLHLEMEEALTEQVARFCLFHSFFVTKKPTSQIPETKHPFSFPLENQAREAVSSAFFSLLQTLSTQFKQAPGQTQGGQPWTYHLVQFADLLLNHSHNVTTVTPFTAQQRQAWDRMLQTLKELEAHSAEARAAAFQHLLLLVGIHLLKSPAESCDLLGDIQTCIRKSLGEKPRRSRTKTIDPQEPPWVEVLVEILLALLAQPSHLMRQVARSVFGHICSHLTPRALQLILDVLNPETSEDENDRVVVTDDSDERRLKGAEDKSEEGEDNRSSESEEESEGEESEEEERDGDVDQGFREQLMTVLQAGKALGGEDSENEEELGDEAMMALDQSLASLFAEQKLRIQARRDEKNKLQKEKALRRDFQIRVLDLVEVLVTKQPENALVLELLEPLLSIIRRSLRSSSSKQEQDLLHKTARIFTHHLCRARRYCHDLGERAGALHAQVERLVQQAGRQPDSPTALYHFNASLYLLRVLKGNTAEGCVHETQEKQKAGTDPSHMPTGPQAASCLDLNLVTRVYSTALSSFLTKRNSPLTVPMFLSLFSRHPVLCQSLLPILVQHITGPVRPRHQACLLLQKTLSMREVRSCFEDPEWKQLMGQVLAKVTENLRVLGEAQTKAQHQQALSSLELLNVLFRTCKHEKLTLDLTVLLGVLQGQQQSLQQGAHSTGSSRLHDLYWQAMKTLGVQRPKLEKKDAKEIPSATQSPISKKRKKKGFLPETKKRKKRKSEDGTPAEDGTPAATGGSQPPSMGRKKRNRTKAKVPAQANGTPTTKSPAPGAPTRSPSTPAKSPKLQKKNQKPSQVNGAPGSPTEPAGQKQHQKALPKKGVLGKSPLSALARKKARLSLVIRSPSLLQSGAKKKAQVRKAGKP
UniProt O75592: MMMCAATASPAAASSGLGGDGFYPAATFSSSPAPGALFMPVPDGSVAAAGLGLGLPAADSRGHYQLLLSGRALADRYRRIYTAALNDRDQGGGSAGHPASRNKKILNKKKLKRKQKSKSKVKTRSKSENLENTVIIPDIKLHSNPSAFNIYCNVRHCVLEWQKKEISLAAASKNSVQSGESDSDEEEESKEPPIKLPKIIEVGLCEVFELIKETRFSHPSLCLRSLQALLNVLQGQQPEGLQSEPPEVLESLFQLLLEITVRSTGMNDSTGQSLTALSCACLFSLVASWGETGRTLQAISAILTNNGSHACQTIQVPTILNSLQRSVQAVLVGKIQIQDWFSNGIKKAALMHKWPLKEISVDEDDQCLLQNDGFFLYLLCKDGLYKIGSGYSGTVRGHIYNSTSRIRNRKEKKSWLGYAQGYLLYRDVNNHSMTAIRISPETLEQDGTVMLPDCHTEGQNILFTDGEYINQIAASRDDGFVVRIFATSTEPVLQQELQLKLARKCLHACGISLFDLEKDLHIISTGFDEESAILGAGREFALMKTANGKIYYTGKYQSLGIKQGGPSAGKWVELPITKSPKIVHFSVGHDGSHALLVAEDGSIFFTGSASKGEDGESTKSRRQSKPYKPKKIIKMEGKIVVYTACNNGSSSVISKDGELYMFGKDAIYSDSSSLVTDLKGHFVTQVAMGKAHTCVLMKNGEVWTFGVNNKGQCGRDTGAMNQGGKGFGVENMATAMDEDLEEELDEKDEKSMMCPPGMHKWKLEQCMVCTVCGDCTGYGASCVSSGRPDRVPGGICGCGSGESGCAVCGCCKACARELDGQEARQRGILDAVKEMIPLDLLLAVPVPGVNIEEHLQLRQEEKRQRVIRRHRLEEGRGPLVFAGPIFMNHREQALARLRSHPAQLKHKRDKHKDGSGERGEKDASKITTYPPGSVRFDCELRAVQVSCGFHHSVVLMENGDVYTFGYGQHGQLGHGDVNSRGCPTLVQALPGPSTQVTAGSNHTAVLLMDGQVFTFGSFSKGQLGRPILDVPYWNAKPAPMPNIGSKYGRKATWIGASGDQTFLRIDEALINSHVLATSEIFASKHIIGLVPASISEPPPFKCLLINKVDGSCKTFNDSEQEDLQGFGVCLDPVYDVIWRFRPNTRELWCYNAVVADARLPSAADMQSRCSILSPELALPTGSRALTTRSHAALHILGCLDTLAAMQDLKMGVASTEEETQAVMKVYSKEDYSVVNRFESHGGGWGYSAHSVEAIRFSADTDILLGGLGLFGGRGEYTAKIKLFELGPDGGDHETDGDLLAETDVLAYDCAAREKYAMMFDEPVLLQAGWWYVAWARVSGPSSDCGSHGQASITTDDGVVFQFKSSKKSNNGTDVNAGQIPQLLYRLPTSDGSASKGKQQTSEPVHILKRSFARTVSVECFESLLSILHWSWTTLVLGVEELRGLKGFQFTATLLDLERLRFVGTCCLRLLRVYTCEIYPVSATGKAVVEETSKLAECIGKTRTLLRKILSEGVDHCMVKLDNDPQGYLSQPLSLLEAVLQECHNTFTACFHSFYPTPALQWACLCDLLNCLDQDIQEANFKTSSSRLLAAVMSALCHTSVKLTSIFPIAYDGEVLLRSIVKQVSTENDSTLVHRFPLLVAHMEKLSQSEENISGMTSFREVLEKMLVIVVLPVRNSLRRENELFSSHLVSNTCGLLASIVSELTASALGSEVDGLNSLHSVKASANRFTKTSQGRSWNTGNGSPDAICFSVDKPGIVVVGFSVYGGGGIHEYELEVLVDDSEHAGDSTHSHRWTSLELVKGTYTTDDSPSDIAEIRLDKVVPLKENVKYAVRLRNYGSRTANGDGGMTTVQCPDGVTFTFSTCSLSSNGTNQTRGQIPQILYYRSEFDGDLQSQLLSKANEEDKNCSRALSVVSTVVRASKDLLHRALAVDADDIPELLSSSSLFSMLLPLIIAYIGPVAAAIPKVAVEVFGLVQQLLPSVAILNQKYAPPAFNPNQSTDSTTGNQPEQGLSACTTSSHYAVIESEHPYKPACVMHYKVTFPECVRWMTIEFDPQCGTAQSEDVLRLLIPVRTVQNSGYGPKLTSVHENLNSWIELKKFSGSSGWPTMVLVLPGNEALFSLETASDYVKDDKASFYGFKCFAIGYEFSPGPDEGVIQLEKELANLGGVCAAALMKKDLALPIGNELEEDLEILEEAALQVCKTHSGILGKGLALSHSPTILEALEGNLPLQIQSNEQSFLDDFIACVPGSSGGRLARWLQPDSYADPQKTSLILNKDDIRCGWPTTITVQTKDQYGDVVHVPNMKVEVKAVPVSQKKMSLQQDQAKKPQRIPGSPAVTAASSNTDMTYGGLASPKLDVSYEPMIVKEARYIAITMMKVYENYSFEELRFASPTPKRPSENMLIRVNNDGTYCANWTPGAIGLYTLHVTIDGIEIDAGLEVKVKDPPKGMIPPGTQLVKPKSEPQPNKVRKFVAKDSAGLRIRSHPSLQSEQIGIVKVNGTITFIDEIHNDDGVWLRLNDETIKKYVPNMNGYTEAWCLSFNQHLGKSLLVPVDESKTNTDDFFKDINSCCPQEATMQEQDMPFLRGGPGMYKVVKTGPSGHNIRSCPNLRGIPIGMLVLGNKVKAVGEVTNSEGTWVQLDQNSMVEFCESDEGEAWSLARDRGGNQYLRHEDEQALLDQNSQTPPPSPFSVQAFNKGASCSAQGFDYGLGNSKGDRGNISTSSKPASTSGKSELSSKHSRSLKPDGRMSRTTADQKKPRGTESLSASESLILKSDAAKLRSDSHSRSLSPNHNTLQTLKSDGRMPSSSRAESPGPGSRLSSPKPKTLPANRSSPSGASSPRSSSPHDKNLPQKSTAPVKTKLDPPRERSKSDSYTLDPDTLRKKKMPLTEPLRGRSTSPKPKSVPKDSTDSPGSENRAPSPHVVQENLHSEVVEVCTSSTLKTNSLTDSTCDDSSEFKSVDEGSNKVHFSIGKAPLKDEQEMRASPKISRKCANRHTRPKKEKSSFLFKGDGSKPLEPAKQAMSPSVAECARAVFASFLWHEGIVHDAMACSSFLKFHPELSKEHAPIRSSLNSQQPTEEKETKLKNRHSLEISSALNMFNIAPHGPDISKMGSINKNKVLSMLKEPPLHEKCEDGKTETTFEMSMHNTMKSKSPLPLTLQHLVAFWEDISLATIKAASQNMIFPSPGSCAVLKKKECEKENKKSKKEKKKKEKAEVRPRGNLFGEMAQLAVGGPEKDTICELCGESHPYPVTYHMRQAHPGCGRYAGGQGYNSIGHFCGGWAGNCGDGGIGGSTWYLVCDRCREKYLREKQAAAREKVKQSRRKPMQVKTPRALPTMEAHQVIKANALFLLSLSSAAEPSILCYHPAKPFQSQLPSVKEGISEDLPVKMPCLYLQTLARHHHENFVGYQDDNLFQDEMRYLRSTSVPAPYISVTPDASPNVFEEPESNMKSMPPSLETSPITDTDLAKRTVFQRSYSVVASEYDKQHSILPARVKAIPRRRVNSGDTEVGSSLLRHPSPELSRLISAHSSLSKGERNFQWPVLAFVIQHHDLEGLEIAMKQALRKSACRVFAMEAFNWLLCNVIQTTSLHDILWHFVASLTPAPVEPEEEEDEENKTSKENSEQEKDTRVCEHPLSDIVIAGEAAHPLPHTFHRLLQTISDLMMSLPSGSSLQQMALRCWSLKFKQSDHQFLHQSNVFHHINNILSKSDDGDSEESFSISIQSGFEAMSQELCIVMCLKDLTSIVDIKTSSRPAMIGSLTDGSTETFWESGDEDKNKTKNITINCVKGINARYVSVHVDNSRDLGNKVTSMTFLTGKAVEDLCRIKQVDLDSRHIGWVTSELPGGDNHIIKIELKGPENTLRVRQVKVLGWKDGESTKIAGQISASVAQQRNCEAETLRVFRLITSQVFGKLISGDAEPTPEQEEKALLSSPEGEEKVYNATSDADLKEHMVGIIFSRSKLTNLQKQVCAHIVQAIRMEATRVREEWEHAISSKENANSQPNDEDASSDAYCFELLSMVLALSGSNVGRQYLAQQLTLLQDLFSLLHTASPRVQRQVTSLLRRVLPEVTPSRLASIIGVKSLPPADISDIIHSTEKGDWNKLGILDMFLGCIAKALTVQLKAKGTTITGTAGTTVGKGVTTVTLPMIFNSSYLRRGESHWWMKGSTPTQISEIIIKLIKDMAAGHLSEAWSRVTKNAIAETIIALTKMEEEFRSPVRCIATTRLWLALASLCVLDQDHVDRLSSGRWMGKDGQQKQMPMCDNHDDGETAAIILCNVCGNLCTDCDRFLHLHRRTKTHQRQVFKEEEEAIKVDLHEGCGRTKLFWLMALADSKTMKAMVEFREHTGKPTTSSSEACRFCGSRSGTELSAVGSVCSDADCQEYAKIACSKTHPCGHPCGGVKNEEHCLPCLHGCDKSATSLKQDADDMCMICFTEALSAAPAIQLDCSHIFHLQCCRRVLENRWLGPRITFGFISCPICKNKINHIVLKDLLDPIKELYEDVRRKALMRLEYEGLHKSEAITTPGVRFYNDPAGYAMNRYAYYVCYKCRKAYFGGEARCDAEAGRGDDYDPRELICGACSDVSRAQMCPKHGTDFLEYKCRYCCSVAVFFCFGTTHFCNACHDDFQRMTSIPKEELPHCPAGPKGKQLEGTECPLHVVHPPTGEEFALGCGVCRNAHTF
UniProt O75570: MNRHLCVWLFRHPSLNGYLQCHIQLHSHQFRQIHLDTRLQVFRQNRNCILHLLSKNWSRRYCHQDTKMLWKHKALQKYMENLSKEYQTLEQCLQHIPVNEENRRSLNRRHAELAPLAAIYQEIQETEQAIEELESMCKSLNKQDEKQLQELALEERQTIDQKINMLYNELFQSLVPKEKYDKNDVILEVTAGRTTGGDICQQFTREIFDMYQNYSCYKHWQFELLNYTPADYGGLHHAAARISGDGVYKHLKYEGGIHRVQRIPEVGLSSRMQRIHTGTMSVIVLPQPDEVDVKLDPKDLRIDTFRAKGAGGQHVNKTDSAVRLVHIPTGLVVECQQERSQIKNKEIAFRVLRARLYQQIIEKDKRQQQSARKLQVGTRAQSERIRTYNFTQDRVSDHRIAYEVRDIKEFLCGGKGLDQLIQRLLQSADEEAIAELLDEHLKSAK

Each target was assayed with Cc1cc(ccc1-c1ccccc1)C(=O)N1CCCN(CC1)C(=O)CCl [compound 10] (assay: probe-labelled cysteine peptide fold change vs DMSO (competition) (log2 fold change); higher = less target engagement (more negative = stronger competition)). Details: 10 µM; THP-1; incubation time: 4 h.
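Further: competitive profiling in live THP-1 cells: cysteine peptides tagged with an iodoacetamide desthiobiotin (IA-DTB) probe, intensity after compound treatment relative to DMSO-treated cells.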

Target	probe-labelled cysteine peptide fold change
MYBBP1A_Q9BQG0_884_IFTHHLCR (UniProt Q9BQG0)	0.036
MTFR2_Q6P444_50_MLPLEPCR (UniProt Q6P444)	-0.0626
MYCBP2_O75592_3824_AVEDLCR (UniProt O75592)	-0.108
MYH9_P35579_740_QACVLMIK (UniProt P35579)	0.0307
MRPS24_Q96EL2_103_FMWGTFPGCLADQLVLK (UniProt Q96EL2)	0.151
MTRF1_O75570_335_LVHIPTGLVVECQQER (UniProt O75570)	-0.125
MYBBP1A_Q9BQG0_1031_HQACLLLQK (UniProt Q9BQG0)	-0.0483
MTHFSD_Q2M296_267_DVTLQGEHQHLPEPGCQQTVPLSVGR (UniProt Q2M296)	-0.222
MYBL2_P10244_147_SCWTEEEDRIICEAHK (UniProt P10244)	0.166
MSH6_P52701_687_SELALSALGGCVFYLK (UniProt P52701)	0.05
MTHFD1_P11586_143_GDLNDCFIPCTPK (UniProt P11586)	-0.047
MYCBP2_O75592_4406+4413_NEEHCLPCLHGCDK (UniProt O75592)	-0.28
MYADM_Q96S97_279_SRDVSCSR (UniProt Q96S97)	1.07
MRTO4_Q9UKD2_176_GVVTLLSDYEVCK (UniProt Q9UKD2)	0.0175
MRRF_Q96E11_154_SPQLILVNMASFPECTAAAIK (UniProt Q96E11)	-0.164
MYBBP1A_Q9BQG0_614_SPAESCDLLGDIQTCIR (UniProt Q9BQG0)	0.0501
